Experimental data: the supplement of paper PMC11732987, “Enantioselective OTUD7B fragment discovery through chemoproteomics screening and high-throughput optimisation” (Communications Chemistry, 2025)
Some of the results follow. The data scatter; read single values as rough.

Chains of the proteins cited; added tags and fusions are not shown. Lines headed by an entry give the natural chain unless they say otherwise; changes in a name come on top. Residues count along the entry.
UniProt Q3SXY8, 132-151: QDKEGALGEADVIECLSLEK
UniProt Q6NXT1, 114-144: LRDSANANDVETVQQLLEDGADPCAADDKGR
UniProt Q86XL3, 674-698: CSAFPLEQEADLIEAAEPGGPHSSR
UniProt O14727: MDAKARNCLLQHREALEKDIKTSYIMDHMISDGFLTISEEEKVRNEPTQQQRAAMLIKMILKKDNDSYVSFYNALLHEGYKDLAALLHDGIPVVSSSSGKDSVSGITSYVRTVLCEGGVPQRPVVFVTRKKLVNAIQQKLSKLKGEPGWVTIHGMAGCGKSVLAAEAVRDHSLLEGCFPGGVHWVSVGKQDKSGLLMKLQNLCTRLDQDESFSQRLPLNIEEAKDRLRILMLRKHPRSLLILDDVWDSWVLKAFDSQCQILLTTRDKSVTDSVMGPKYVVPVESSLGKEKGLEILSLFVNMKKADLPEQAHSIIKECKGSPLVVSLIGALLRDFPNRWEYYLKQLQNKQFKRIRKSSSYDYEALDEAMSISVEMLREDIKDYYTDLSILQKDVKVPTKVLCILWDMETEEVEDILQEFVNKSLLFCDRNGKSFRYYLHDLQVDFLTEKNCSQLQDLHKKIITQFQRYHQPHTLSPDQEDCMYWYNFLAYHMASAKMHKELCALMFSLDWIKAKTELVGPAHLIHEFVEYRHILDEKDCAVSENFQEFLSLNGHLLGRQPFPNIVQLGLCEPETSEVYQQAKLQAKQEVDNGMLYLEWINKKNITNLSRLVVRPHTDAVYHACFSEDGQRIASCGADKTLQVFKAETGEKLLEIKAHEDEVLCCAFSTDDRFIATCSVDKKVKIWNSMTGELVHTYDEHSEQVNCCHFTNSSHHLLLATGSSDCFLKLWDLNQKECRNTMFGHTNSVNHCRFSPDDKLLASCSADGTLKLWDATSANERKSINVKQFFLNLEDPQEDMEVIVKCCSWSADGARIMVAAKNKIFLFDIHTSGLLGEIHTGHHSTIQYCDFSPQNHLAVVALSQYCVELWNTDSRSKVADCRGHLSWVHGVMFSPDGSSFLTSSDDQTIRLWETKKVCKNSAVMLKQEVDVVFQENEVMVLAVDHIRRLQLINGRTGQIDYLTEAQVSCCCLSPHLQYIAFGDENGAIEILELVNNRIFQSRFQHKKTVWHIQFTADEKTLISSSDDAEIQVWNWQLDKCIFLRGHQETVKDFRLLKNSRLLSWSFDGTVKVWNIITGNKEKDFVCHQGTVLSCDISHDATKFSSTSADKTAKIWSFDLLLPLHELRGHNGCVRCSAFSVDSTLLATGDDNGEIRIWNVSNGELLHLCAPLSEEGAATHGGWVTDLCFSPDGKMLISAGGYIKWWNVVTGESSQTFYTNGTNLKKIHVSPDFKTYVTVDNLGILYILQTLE
UniProt Q8N8A2: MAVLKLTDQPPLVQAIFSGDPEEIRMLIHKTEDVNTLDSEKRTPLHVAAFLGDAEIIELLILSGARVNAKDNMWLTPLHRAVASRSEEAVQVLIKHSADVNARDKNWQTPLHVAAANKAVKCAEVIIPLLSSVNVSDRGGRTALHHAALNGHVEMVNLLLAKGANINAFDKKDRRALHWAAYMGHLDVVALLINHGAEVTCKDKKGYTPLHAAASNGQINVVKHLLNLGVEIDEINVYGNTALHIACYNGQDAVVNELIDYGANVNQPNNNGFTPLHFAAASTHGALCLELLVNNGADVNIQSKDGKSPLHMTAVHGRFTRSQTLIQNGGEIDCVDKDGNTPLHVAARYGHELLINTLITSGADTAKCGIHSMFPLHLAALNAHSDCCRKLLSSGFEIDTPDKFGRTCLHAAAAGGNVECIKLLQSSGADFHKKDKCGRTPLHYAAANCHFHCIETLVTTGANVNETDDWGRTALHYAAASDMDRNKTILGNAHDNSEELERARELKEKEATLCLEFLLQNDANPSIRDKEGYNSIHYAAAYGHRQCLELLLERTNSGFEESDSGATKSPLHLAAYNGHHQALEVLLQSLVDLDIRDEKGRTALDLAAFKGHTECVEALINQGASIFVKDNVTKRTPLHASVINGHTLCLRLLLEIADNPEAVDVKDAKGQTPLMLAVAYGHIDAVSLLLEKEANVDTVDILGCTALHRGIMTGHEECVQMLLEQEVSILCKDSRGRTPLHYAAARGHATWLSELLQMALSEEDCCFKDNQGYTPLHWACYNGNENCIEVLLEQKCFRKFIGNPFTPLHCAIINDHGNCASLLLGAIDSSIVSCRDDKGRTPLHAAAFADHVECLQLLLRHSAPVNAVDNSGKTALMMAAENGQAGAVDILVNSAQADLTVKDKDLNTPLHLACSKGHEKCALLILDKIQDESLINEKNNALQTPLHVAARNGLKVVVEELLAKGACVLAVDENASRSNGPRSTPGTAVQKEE
UniProt Q52LW3: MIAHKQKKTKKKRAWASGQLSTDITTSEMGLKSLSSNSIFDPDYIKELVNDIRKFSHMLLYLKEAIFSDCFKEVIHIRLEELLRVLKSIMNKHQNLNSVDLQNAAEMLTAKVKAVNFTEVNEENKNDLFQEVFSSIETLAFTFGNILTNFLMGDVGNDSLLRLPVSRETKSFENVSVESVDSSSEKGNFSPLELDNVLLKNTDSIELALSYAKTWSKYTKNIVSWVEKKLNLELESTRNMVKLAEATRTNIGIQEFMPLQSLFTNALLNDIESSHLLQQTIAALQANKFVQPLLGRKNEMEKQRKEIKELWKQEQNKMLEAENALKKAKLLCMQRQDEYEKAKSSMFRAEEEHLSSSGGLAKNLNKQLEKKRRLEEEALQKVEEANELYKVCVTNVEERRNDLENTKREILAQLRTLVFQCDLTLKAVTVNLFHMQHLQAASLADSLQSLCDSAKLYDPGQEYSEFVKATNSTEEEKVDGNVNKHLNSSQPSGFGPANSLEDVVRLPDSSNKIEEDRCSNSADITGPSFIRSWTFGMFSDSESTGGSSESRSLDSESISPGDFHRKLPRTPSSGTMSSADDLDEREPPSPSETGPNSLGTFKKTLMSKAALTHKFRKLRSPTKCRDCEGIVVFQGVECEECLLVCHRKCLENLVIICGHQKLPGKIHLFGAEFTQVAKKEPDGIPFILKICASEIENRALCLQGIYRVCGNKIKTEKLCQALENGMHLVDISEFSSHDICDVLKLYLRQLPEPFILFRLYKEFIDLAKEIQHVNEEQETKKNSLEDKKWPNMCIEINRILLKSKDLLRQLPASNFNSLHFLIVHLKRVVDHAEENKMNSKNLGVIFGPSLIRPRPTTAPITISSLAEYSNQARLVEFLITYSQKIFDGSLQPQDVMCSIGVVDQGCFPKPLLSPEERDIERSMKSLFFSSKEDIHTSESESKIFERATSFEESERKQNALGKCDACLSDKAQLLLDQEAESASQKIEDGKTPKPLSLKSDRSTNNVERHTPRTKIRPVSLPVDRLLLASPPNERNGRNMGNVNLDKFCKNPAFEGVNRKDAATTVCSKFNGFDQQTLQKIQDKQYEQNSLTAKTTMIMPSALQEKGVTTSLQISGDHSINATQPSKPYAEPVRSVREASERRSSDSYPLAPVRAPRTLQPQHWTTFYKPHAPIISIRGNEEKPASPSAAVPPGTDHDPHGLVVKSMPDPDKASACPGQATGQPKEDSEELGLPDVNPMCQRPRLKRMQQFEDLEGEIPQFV
UniProt P10398: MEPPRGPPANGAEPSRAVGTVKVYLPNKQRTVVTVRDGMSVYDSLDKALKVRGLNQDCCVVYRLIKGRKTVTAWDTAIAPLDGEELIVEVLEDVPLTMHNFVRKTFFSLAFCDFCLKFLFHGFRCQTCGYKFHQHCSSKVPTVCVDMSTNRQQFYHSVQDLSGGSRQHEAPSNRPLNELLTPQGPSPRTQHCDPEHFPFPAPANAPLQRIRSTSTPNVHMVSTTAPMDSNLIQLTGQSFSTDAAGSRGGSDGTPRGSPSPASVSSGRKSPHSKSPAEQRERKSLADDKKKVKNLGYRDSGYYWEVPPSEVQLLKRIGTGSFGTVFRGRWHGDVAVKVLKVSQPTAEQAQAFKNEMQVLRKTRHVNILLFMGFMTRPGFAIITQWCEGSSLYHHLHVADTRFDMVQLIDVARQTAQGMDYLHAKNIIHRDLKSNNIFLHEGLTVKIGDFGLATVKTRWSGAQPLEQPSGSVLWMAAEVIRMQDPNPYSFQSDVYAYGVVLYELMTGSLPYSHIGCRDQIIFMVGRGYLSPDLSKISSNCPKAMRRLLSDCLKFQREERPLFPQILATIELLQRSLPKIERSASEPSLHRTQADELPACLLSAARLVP
UniProt Q9BZZ5, 211-237: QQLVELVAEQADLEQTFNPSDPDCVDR
UniProt P59780, 42-62: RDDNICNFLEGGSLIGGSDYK
UniProt Q9Y6D6: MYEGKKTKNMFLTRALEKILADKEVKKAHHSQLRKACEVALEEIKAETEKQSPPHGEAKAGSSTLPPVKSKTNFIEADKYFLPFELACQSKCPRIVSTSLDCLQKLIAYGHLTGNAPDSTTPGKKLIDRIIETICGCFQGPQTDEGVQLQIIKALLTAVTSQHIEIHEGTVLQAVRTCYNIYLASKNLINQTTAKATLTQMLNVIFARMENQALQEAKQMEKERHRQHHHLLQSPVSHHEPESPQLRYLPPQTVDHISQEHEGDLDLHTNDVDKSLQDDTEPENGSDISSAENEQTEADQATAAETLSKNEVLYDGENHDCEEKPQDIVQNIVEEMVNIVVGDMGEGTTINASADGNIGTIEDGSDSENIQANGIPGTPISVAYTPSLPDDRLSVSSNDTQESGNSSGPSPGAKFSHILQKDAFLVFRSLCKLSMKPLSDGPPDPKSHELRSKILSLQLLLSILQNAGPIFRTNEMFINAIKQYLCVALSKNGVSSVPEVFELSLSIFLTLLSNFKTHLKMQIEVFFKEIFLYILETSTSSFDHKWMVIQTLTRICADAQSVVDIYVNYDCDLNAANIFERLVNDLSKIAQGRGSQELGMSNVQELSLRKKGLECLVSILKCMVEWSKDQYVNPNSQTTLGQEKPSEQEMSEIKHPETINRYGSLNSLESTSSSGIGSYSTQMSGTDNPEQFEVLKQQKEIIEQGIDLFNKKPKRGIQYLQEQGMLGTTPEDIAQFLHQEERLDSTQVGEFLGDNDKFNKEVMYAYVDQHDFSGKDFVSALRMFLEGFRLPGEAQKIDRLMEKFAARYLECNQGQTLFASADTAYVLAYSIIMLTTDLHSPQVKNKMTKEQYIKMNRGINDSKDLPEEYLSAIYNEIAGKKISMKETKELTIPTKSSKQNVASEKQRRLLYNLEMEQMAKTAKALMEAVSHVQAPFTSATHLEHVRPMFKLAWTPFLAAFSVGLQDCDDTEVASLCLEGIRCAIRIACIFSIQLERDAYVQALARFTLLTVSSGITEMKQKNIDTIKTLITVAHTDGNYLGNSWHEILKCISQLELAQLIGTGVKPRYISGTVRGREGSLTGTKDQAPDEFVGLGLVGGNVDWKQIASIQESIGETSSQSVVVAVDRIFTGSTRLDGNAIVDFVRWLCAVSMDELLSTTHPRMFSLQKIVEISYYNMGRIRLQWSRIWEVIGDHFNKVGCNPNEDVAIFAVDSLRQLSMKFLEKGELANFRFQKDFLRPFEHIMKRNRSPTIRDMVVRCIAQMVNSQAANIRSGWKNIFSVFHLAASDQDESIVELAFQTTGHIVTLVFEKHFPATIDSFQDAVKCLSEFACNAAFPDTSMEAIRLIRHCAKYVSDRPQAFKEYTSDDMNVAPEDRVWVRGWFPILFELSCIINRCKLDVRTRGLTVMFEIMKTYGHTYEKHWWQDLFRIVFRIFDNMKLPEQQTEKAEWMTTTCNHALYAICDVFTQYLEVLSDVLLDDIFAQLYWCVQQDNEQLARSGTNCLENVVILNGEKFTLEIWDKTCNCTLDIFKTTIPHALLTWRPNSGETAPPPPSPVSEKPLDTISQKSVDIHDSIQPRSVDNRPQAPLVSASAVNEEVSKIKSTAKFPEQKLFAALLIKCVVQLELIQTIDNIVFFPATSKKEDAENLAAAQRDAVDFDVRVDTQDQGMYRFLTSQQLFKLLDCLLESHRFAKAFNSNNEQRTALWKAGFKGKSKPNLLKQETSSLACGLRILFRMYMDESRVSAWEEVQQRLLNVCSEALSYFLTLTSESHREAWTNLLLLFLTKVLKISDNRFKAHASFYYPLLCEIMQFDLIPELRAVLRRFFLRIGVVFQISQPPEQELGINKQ
UniProt P20073: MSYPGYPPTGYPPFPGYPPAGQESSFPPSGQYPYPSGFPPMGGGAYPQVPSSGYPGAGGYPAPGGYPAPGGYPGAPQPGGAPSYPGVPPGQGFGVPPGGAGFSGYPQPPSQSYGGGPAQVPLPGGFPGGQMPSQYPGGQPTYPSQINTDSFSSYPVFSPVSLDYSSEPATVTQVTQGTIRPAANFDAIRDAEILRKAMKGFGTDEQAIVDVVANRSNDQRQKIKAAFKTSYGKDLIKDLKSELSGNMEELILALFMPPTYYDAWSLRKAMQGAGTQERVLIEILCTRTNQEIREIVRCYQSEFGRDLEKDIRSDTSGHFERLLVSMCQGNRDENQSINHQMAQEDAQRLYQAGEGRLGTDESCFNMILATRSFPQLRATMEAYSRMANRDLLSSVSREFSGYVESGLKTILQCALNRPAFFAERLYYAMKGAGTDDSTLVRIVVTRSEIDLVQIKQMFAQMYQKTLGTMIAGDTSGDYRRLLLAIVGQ

compound: ClCC(=O)N[C@H]1CCCc2ccccc12; assay: log2 mean competition ratio of IA-DTB cysteine labelling (DMSO/compound) (log2 ratio); higher = stronger cysteine engagement by compound; conditions: 200 µM; treatment time: 4 h; cell line lysate: HEK293T
Protocol: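 IA-DTB competitive cysteine chemoproteomics in HEK293T RIPA lysate. Lysates were treated with compound 29 or 30 at 50 or 200 µM for 4 h, then IA-DTB (500 µM, 1 h), trypsin-digested, NeutrAvidin-enriched and analysed by diaPASEF. Competition ratio = intensity DMSO / intensity compound (n=4 treated, n=64 DMSO); binding: mean log2 CR ≥ 1 and p ≤ 0.05 plus QC filters. Target is the cysteine site.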

Row | Target | log2 mean competition ratio
1 | ARL13B C146 (UniProt Q3SXY8) | 0.123
2 | ANXA6 C59 | 0.225
3 | ANKRD17 C1746 (UniProt O75179) | -0.0919
4 | ANKRD54 C137 (UniProt Q6NXT1) | -0.284
5 | ANKS1A C633 (UniProt Q92625) | 0.235
6 | ARL15 C53 (UniProt Q9NXU5) | 0.14
7 | ARMC8 C3 | 0.139
8 | ARHGAP35 C924 (UniProt Q9NRY4) | -0.337
9 | ANKRD50 C1328 (UniProt Q9ULJ7) | 0.632
10 | ARHGEF26 C850 | 0.0346
11 | ANKLE2 C674 (UniProt Q86XL3) | 0.09
12 | AP3B1 C893 (UniProt O00203) | 0.207
13 | ARHGEF39 C10 | 0.469
14 | AQR C595 (UniProt O60306) | -0.00117
15 | ARHGEF39 C5 | 0.428
16 | AS3MT C271 | -0.000462
17 | APAF1 C761 (UniProt O14727) | 0.0186
18 | ARL6 C22 (UniProt Q9H0F7) | 0.167
19 | ASH1L C227 | 0.145

Row | Target | log2 mean competition ratio
20 | ANLN C512 (UniProt Q9NQW6) | -0.0212
21 | AP4M1 C235 (UniProt O00189) | -0.0887
22 | ANKRD44 C967 (UniProt Q8N8A2) | 0.0777
23 | ARHGEF6 C418 (UniProt Q15052) | -0.0972
24 | ANO6 C261 (UniProt Q4KMQ2) | 0.515
25 | APAF1 C450 (UniProt O14727) | -0.233
26 | ARHGAP29 C1066 (UniProt Q52LW3) | 0.577
27 | ARHGEF40 C1148 (UniProt Q8TER5) | 0.0333
28 | ASCC3 C704 (UniProt Q8N3C0) | -0.155
29 | ARFGAP1 C351 (UniProt Q8N6T3) | 0.147
30 | ARAF C549 (UniProt P10398) | -0.0844
31 | ARHGEF26 C491 | 0.106
32 | API5 C234 (UniProt Q9BZZ5) | 0.558
33 | ARL16 C164 | 0.246
34 | AP3S2 C47 (UniProt P59780) | -0.186
35 | ARFGEF1 C622 (UniProt Q9Y6D6) | -0.171
36 | ANXA7 C327 (UniProt P20073) | -0.169
37 | AS3MT C32 | -0.067

Part of the list above, as a markdown table.

| Row | Target | log2 mean competition ratio |
| --- | --- | --- |
| 5 | ANKS1A C633 (UniProt Q92625) | 0.235 |
| 25 | APAF1 C450 (UniProt O14727) | -0.233 |
| 29 | ARFGAP1 C351 (UniProt Q8N6T3) | 0.147 |
